Where “and” joins values, the source holds several entries; their conditions need not be identical. Identical values can stand only once. The list shows a part of the results. Shown are side measurements of this screen, not its main read-out; they come without a call. Compounds called inactive in the main read-out are mostly missing here. The note in brackets gives the kind of curve behind each potency; many fits are weak.
Assay: qHTS Assay for Lipid Storage Modulators in Drosophila S3 Cells;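 on cell number change: cells counted by Cell Tracker Red CMTPX staining in the red channel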
Conditions: BODIPY lipid droplet fluorescence, 18-24 h; for cell number change: measured here: cell count max response, cells fed with added oleic acid
Outline: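 Drosophila S3 cells got compounds at several concentrations plus oleic acid (400 uM solution). Laser-scanning cytometry with 488 nm excitation read lipid droplets at 500-530 nm and cells at 575-640 nm. Percent activity was relative to 20 uM Triacsin C.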

[1] = measured here: lipid fluorescence (Fed channel) AC50, cells fed with added oleic acid
[2] = measured here: cell number channel AC50, cells fed with added oleic acid

Structure (SMILES)	cell number change [%]	AC50 [1]	AC50 [2]
N[C@@H](Cc1c[nH]c2ccccc12)c1nnc(SCc2ccccc2)o1	26.4		
CC(CCc1ccccc1)NC(C)C(O)c1ccc(O)cc1 (stereo unspecified)	-10.3	0.146 µM [falling, full curve, poor fit]	
COc1cc2c(cc1OC)C(C1c3cc4c(cc3CCN1C)OCO4)OC2=O (stereo unspecified)	7.35	20.6 µM [rising, partial curve]	
C=CCn1c(O)c(/C=C2\C=Nc3ccccc32)c(=O)[nH]c1=O	-66.2		29.1 µM [falling, single point]
Cc1nc2ccccc2c(=O)n1-n1cnnc1	182	4.11 µM [rising, full curve]	
Cc1ccc(C(C)C)c(OCCn2c(=O)oc3ccccc32)c1			18.4 µM [falling, single point]
CCC/C(=N\O)c1c[nH]c2ccccc12	2.23		
CC(C)(C)c1ccc(O)c(N=Cc2c(O)ccc3ccccc23)c1	-64.3	23.1 µM [falling, single point]	25.9 µM [falling, partial curve]
COC(=O)C1=C(c2cccc(C#N)c2)C[C@@H]2CC[C@H]1N2C(=O)NCCOc1ccccc1Cl	-40.2	1.46 µM [falling, partial curve]	1.16 µM [falling, full curve]
COC(=O)C1=C(c2ccc(OC(F)(F)F)cc2)C[C@@H]2CC[C@H]1N2C(=O)NCCNC(C)=O	7.82	11.6 µM [rising, partial curve]	
C=CCN1C(=O)C2(C(C(=O)OCC)=C(N)Oc3ccccc32)C2=C1CCCC2=O (stereo unspecified)	9.92	29.1 µM [rising, single point]	
CC(C)OCC(O)CN1CC2C[C@@H](C1)Cn1c2cccc1=O (stereo partly specified)	4.17		
O=P(CCl)(Nc1ccccc1)C(Cl)(Cl)Cl (stereo unspecified)	29.8		
Cc1nn(Cc2ccccc2)c(C)c1C=C1C(=O)NC(=S)NC1=O		0.00461 µM [falling, full curve, poor fit]	
Cc1ccc(-c2nn(CCC#N)cc2C(=O)O)cc1C	-47.8	1.84 µM [falling, partial curve]	2.91 µM [falling, full curve]
CCOc1ccc(CN2CCCC(C(=O)c3ccccc3OC)C2)cc1 (stereo unspecified)	-0.275		
COCCN(CC(=O)Oc1ccccc1P(=O)(OC)OC)Cc1ccccc1			0.13 µM [falling, full curve, poor fit]
CCCc1[nH]nc2c1C1(C(=O)N(CC(N)=O)c3ccccc31)C(C(=O)OC)=C(N)O2 (stereo unspecified)	-5.71	29.1 µM [falling, single point]	
O=c1c2ccccc2nc(-c2cccs2)n1-c1cnccn1	-0.129		
Cc1ccc2nsnc2c1-n1c(C)nc2ccccc2c1=O	19.5	18.4 µM [rising, single point]	
CC/C(CC(c1ccccc1)c1c(O)c2ccccc2oc1=O)=N\NC(N)=S (stereo unspecified)	20.4	9.2 µM [rising, partial curve, poor fit]	

Structure (SMILES)	cell number change [%]	AC50 [1]	AC50 [2]
Cc1ccc(OCC(=O)Nc2ccc(Cl)cc2C(=O)c2ccccc2)cc1	29.6		0.461 µM [falling, single point]
OCCNc1c2c(nc3ccccc13)CCCC2	0.612	29.1 µM [falling, single point]	
C[C@]12CC[C@H](OS(=O)(=O)O)CC1=CC[C@@H]1[C@@H]2CC[C@]2(C)C(=O)CC[C@@H]12	-51.1	116 nM [rising, full curve, poor fit] and 29.1 µM [falling, single point]	29.1 µM [falling, single point]
Cc1csc(NC(=O)CCn2c(=O)oc3ccc(Cl)cc32)n1			0.92 µM [falling, full curve]
O=C(CN1CCCC1)Nc1ccc(Cl)cc1C(=O)c1ccccc1		6.51 µM [falling, single point]	5.8 µM [falling, single point]
O=C(Nc1ccccc1)OC1CN=C(N[N+](=O)[O-])NC1 (stereo unspecified)	-42.1		6.51 µM [falling, full curve, poor fit]
c1ccc2nc(N3CCNCC3)ccc2c1	9.43	0.517 µM [falling, single point]	
COc1ccc(-n2c(-c3ccc(C)cc3)nc3ccccc3c2=O)cc1	-50.6	29.1 µM [falling, single point]	29.1 µM [falling, single point]
CC(C)c1ccc(N=Nc2c(O)[nH]c(=O)[nH]c2=O)cc1	11.8	0.92 µM [rising, full curve]	
CC(NC(=O)Cn1c(=O)oc2cc(S(=O)(=O)N3CCCC3)ccc21)c1ccccc1 (stereo unspecified)			11.6 µM [rising, partial curve, poor fit]
Cc1cc(OCc2nn[nH]n2)c2c3c(c(=O)oc2c1)CCC3	37		16.4 µM [rising, partial curve, poor fit]
COC(=O)C1=C(c2ccc(-c3ccccc3)c(F)c2)C[C@@H]2CC[C@H]1N2C(=O)NCCc1ccccc1	-32		14.6 µM [falling, single point]
CCOCCN1CCN(c2nnc3n2-c2ccc(Cl)cc2C(c2ccccc2Cl)=NC3)CC1	-13.6	1.46 µM [rising, partial curve, poor fit]	
CNCCc1nc(N)n[nH]1	-47.6		23.1 µM [falling, partial curve]
COC(=O)C1=C(c2c(C)noc2C)C[C@@H]2CC[C@H]1N2C(=O)N1CCCC1	-17.9		0.092 µM [falling, full curve, poor fit]
COc1ccccc1N1CCN(Cc2cc(C)c(C)cc2O)CC1	9.1		
O=C(c1cccs1)C1CN2CCC1CC2 (stereo unspecified)	-97.9	2.59 µM [falling, full curve]	
CN(C)c1ccc(/C=C2/C(=O)NC(=O)N(CCc3ccc(F)cc3)C2=O)cc1	7.95	0.82 µM [falling, full curve, poor fit]	
O=C1OCCC1NC1=NCCC1 (stereo unspecified)	-136	25.9 µM [falling, partial curve]	23.1 µM [falling, partial curve]
O=C1NC(=O)N(Cc2ccccc2)C(=O)/C1=C/c1cnn(-c2ccccc2)c1		20.6 µM [rising, single point]	
O=C(c1cc2c(s1)CCCCCC2)N1CCC2(CC1)OCCO2	-65.3		18.4 µM [falling, partial curve]

Structure (SMILES)	cell number change [%]	AC50 [1]	AC50 [2]
O=C1CN=C(c2ccccc2F)c2cc(Cl)ccc2N1	-18.8	32.6 µM [falling, single point]	
O=C(C1CCC(=O)N1Cc1ccc(F)cc1)N1CCC2(CC1)OCCO2 (stereo unspecified)	20.4	29.1 µM [rising, single point]	
Cc1ccc(OCC(=O)N2CCN(C3CCC(c4ccccc4)CC3)CC2)cc1 (stereo unspecified)	-14.7	0.00731 µM [falling, full curve, poor fit]	
O=[N+]([O-])c1ccc(Cl)cc1	3.95	5.17 µM [rising, single point]	0.651 µM [rising, partial curve]
COc1ccccc1-n1c(Cc2ccccc2)nc2ccccc2c1=O			0.103 µM [rising, full curve, poor fit]
Cc1ccc(S(=O)(=O)CC(=O)c2cc(C)c(OC(=O)N(C)C)c(C)c2)cc1	-19.6	20.6 µM [falling, single point]	
C=C1C(=O)O[C@@H]2C[C@@H](C)[C@@H]3C=CC(=O)[C@@]3(C)[C@@H](O)[C@H]12	-67.1	5.8 µM [falling, full curve]	5.8 µM [falling, partial curve]
O=C(COC(=O)Cc1ccccc1)Nc1ccc(Cl)cn1	2.57		
CCN(C(=O)COC(=O)Cc1ccccc1)c1c(N)n(Cc2ccccc2)c(=O)[nH]c1=O	-8.56	2.59 µM [falling, single point]	
COP(=O)(CC(=O)c1ccccc1)CC(=O)c1ccccc1			18.4 µM [falling, single point]
CC[N+]12CCC(CC1)C(C(O)(c1ccccc1)c1ccccc1)C2 (stereo unspecified)	5.26	29.1 µM [rising, single point]	
Cc1cccc(C)c1N1CCN(c2c(C)cccc2C)CC1	-2.46		
CC(=O)c1c(C)n(CC2CCCO2)c2ccc(O)cc12 (stereo unspecified)	-6.88	14.6 µM [rising, single point]	
Cc1ccc(CCN2CC(C(=O)N3CCC4(CC3)OCCO4)CC2=O)cc1 (stereo unspecified)	-7.89	1.64 µM [falling, partial curve]	
CCOP(=O)(OCC)C1(O)C(=O)Nc2ccc(Br)cc21 (stereo unspecified)	14.8	3.26 µM [rising, full curve]	
CNC(=O)ON(C(=O)NC)C1N(C)C(=S)SC1(C)C (stereo unspecified)	14.7	6.51 µM [falling, single point]	
COc1ccc(P2(=O)Nc3ccccc3N2)cc1	-25.1	8.2 µM [falling, partial curve]	
CCCC/C(C)=C/[C@@H](NP(=O)(c1ccccc1)c1ccccc1)c1ccccc1	-62.9	4.11 µM [falling, full curve, poor fit]	20.6 µM [falling, single point]
C[N+]1(C)[C@@H]2CC[C@H]1CC(OC(=O)C(c1ccccc1)c1ccccc1)C2 (stereo partly specified)	-6.94		
CC1(C(O)(C#CCN2CCCCC2)c2ccccc2)CCCC1 (stereo unspecified)	-39	25.9 µM [falling, partial curve, poor fit]	23.1 µM [falling, single point]

Source: PubChem BioAssay AID2685 (National Center for Advancing Translational Sciences (NCATS), 2010)
